ChEMBL document CHEMBL1671662, “In vitro activities of telavancin and six comparator agents against anaerobic bacterial isolates” (2009)
In brackets after ≈: the same amount, converted by molar mass.

Key:
Type in all cases: functional
[1] = tested on: Enterocloster clostridioformis; experiment: Antibacterial activity against Clostridium clostridioforme by CLSI M11-A6 agar dilution method
[2] = tested on: Clostridium bartlettii; experiment: Antibacterial activity against Clostridium bartlettii by CLSI M11-A6 agar dilution method; details: Intestinibacter bartlettii
[3] = tested on: Clostridium beijerinckii; experiment: Antibacterial activity against Clostridium beijerinckii by CLSI M11-A6 agar dilution method
[4] = tested on: Paraclostridium bifermentans; experiment: Antibacterial activity against Clostridium bifermentans by CLSI M11-A6 agar dilution method
[5] = tested on: Clostridium butyricum; experiment: Antibacterial activity against Clostridium butyricum by CLSI M11-A6 agar dilution method
[6] = tested on: Clostridium celerecrescens; experiment: Antibacterial activity against Clostridium celerecrescens by CLSI M11-A6 agar dilution method; details: Lacrimispora celerecrescens
[7] = tested on: Clostridium disporicum; experiment: Antibacterial activity against Clostridium disporicum by CLSI M11-A6 agar dilution method
[8] = tested on: Clostridium glycolicum; experiment: Antibacterial activity against Clostridium glycolicum by CLSI M11-A6 agar dilution method; details: Terrisporobacter glycolicus
[9] = tested on: Clostridium; experiment: Antibacterial activity against Clostridium hypermegas by CLSI M11-A6 agar dilution method
[10] = tested on: Clostridium leptum; experiment: Antibacterial activity against Clostridium leptum by CLSI M11-A6 agar dilution method
[11] = tested on: Flavonifractor plautii; experiment: Antibacterial activity against Clostridium orbiscindens by CLSI M11-A6 agar dilution method
[12] = tested on: Clostridium paraputrificum; experiment: Antibacterial activity against Clostridium paraputrificum by CLSI M11-A6 agar dilution method
[13] = tested on: Clostridium scindens; experiment: Antibacterial activity against Clostridium scindens by CLSI M11-A6 agar dilution method
[14] = tested on: Paeniclostridium sordellii; experiment: Antibacterial activity against Clostridium sordellii by CLSI M11-A6 agar dilution method; details: Paraclostridium sordellii
[15] = tested on: Clostridium spiroforme; experiment: Antibacterial activity against Clostridium spiroforme by CLSI M11-A6 agar dilution method; details: Thomasclavelia spiroformis
[16] = tested on: Clostridium sporogenes; experiment: Antibacterial activity against Clostridium sporogenes by CLSI M11-A6 agar dilution method
[17] = tested on: Clostridium sporosphaeroides; experiment: Antibacterial activity against Clostridium sporosphaeroides by CLSI M11-A6 agar dilution method; details: Faecalispora sporosphaeroides
[18] = tested on: Clostridium tertium; experiment: Antibacterial activity against Clostridium tertium by CLSI M11-A6 agar dilution method
[19] = tested on: Clostridium sp.; experiment: Antibacterial activity against Clostridium sp. by CLSI M11-A6 agar dilution method
[20] = tested on: Ruminococcus sp.; experiment: Antibacterial activity against Ruminococcus sp. by CLSI M11-A6 agar dilution method
[21] = tested on: Anaerococcus prevotii; experiment: Antibacterial activity against Anaerococcus prevotii by CLSI M11-A6 agar dilution method
[22] = tested on: Anaerococcus tetradius; experiment: Antibacterial activity against Anaerococcus tetradius by CLSI M11-A6 agar dilution method
[23] = tested on: Finegoldia magna; experiment: Antibacterial activity against Finegoldia magna by CLSI M11-A6 agar dilution method
[24] = tested on: Peptoniphilus asaccharolyticus; experiment: Antibacterial activity against Peptoniphilus asaccharolyticus by CLSI M11-A6 agar dilution method
[25] = tested on: Peptostreptococcus anaerobius; experiment: Antibacterial activity against Peptostreptococcus anaerobius by CLSI M11-A6 agar dilution method
[26] = tested on: Parvimonas micra; experiment: Antibacterial activity against Peptostreptococcus micros by CLSI M11-A6 agar dilution method
[27] = tested on: Streptococcus anginosus; experiment: Antibacterial activity against Streptococcus anginosus by CLSI M11-A6 agar dilution method
[28] = tested on: Streptococcus constellatus; experiment: Antibacterial activity against Streptococcus constellatus by CLSI M11-A6 agar dilution method
[29] = tested on: Streptococcus intermedius; experiment: Antibacterial activity against Streptococcus intermedius by CLSI M11-A6 agar dilution method

Question: With `CCC[C@@H]1C[C@@H](C(=O)N[C@@H]([C@H]2O[C@H](SC)[C@H](O)[C@@H](O)[C@H]2O)[C@H](C)Cl)N(C)C1` [CLINDAMYCIN] as the compound, how does the MIC50 [1] read?
Answer: The MIC50 was 0.25 µg/mL (≈ 0.588 µM).

Question: What about the MIC50 [2] of the same compound?
Answer: The MIC50 was 0.25 µg/mL (≈ 0.588 µM).

Question: What about the MIC50 [3] of the same compound?
Answer: The MIC50 was 0.25 µg/mL (≈ 0.588 µM).

Question: What about the MIC50 [4] of the same compound?
Answer: Its MIC50 is 0.25 µg/mL (≈ 0.588 µM).

Question: What about the MIC50 [5] of the same compound?
Answer: The MIC50 was 0.25 µg/mL (≈ 0.588 µM).

Question: What about the MIC50 [6] of the same compound?
Answer: The MIC50 was 0.25 µg/mL (≈ 0.588 µM).

Question: What about the MIC50 [7] of the same compound?
Answer: The MIC50 was 0.25 µg/mL (≈ 0.588 µM).

Question: And the MIC50 [8]?
Answer: The MIC50 was 0.25 µg/mL (≈ 0.588 µM).

Question: What about the MIC50 [9] of the same compound?
Answer: The MIC50 was 0.25 µg/mL (≈ 0.588 µM).

Question: And the MIC90 [9]?
Answer: Its MIC90 is 4 µg/mL (≈ 9.41 µM).

Question: And the MIC50 [10]?
Answer: The MIC50 was 0.25 µg/mL (≈ 0.588 µM).

Question: What about the MIC50 [11] of the same compound?
Answer: The MIC50 was 0.25 µg/mL (≈ 0.588 µM).

Question: And the MIC50 [12]?
Answer: The MIC50 was 0.25 µg/mL (≈ 0.588 µM).

Question: And the MIC50 [13]?
Answer: Its MIC50 is 0.25 µg/mL (≈ 0.588 µM).

Question: What about the MIC50 [14] of the same compound?
Answer: The MIC50 was 0.25 µg/mL (≈ 0.588 µM).

Question: What about the MIC50 [15] of the same compound?
Answer: The MIC50 was 0.25 µg/mL (≈ 0.588 µM).

Question: What about the MIC50 [16] of the same compound?
Answer: The MIC50 was 0.25 µg/mL (≈ 0.588 µM).

Question: What about the MIC50 [17] of the same compound?
Answer: Its MIC50 is 0.25 µg/mL (≈ 0.588 µM).

Question: And the MIC50 [18]?
Answer: Its MIC50 is 0.25 µg/mL (≈ 0.588 µM).

Question: What about the MIC50 [19] of the same compound?
Answer: Its MIC50 is 0.25 µg/mL (≈ 0.588 µM).

Question: And the MIC50 [20]?
Answer: The MIC50 was 0.25 µg/mL (≈ 0.588 µM).

Question: What about the MIC50 [21] of the same compound?
Answer: Its MIC50 is 0.25 µg/mL (≈ 0.588 µM).

Question: What about the MIC50 [22] of the same compound?
Answer: The MIC50 was 0.25 µg/mL (≈ 0.588 µM).

Question: And the MIC50 [23]?
Answer: Its MIC50 is 0.25 µg/mL (≈ 0.588 µM).

Question: And the MIC50 [24]?
Answer: The MIC50 was 0.25 µg/mL (≈ 0.588 µM).

Question: What about the MIC50 [25] of the same compound?
Answer: The MIC50 was 0.25 µg/mL (≈ 0.588 µM).

Question: What about the MIC50 [26] of the same compound?
Answer: Its MIC50 is 0.25 µg/mL (≈ 0.588 µM).

Question: What about the MIC50 [27] of the same compound?
Answer: The MIC50 was 0.25 µg/mL (≈ 0.588 µM).

Question: What about the MIC50 [28] of the same compound?
Answer: Its MIC50 is 0.25 µg/mL (≈ 0.588 µM).

Question: And the MIC50 [29]?
Answer: The MIC50 was 0.25 µg/mL (≈ 0.588 µM).
